According to PMC12463088:
Results are given in words; binding and its absence hold for the method and conditions named. Where a sequence is shown, tags or fusion partners need not be part of it.

Molecular target: T1, GST-IRF4 fusion protein (mouse) (UniProt Q64287)
T1 sequence: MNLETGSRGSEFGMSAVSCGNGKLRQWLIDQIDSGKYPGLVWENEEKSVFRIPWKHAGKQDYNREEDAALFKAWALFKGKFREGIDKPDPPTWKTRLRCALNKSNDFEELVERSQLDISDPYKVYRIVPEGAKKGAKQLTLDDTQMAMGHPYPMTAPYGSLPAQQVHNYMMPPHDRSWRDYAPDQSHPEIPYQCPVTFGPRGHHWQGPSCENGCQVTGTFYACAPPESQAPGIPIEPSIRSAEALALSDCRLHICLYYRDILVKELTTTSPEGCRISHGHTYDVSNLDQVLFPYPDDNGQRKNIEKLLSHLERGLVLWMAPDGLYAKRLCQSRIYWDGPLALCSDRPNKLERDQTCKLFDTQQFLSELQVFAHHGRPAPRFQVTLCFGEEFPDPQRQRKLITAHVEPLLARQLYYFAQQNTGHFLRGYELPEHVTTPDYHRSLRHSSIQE
Assay: condition: ≈100 µg His-KPNA6 on ≈100 µg immobilised GST-IRF4; pull-down; GST pulldown without βFaar: ≈100 µg GST or GST-IRF4 immobilised on 50 µL glutathione agarose, ≈100 µg His-KPNA6 added, overnight at 4 °C; eluted with 10 mM glutathione in PBS pH 8.0; immunoblotting; both purified

## His-KPNA6 fusion protein (from UniProt O35345 1-536)
  binding: no binding
